Data reported in patent publication US5554510.
Construct, isoform or probe ends are uncertain for at least one entry.

Test system: 434 repressor / 434R[alpha3(P22R)] heterodimer
Experiment: filter binding
Conditions: nitrocellulose filter binding, CB buffer pH 8, 10 mM MgCl2, 50 mM KCl, room temperature, repressor 1.5-100 nM; purified recombinant protein; protein details: 1:1 mixture of the two purified repressors; label: 5'-32P

ATTTAAGTTTTATTGT (double strand) [16 bp P22/434 hybrid operator]
binding result: binds
